Data reported in the supplement of paper PMC12823440, “Inhibitors supercharge kinase turnover through native proteolytic circuits” (Nature, 2025).
Counter-ions that a name gives are not always drawn. This is one part of the list. Hit calls seldom repeat between salt and free forms of one compound.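 In K562 cells expressing nanoluciferase-fused kinases, luminescence was recorded at 4 h intervals between 2 and 18 h, normalized as percent of control with DMSO at 100% and a positive control at 0%. A significant (2 sigma) signal drop marks a time point as decreased. The authors' rule for a hit is not shown and takes in more than the number of time points.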

By UniProt entry, the sequences of proteins in these tests, tags left out. Where a name states a change or a piece, a line headed by the entry shows the natural chain unless it says otherwise.
UniProt Q9UBF8: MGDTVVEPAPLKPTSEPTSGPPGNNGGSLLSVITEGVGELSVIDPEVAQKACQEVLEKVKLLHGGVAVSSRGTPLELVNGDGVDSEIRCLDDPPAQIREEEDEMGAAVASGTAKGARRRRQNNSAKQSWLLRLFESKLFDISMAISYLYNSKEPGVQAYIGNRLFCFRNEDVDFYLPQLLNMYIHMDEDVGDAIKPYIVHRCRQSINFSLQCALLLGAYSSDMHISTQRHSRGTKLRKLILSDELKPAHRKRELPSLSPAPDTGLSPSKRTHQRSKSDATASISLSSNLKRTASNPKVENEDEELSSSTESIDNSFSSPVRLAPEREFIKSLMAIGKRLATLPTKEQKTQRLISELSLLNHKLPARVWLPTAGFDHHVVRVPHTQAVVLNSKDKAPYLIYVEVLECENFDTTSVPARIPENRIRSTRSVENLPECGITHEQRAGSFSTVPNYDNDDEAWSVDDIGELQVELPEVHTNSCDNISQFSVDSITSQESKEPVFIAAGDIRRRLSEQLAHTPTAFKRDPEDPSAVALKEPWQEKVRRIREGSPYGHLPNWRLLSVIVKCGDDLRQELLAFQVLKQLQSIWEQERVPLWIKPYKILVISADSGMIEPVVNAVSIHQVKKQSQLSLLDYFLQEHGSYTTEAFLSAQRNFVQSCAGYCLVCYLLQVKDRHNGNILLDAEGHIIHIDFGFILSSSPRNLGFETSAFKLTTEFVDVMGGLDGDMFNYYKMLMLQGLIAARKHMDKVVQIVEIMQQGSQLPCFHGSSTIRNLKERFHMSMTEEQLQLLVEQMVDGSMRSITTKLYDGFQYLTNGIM

The molecules below were run against PIK4CB (UniProt Q9UBF8) (assay: number of time points (of 5) at which kinase-Nluc abundance scored as decreased, DMSO-normalised (count); higher = more persistent destabilization). Conditions: K562; 2-18 h.

Structure (SMILES) | number of time points
C[C@@H](c1ccc2nccn2c1)n1nnc2ncc(-c3cnn(C)c3)nc21 [Savolitinib] (10 µM) | 0
CN1C(=O)C(Cc2c[nH]c3ccccc23)NC1=S (stereo unspecified) [Necrostatin-1] (10 µM) | 0
C[C@@H]1C(=O)O[C@H](C)[C@H]1C[C@@H](O)[C@](C)(O)[C@H]1CC[C@@]2(O)C3=CC(=O)[C@@H]4C[C@@H](O)[C@@H](O)C[C@]4(C)[C@H]3CC[C@]12C [Cyasterone] (10 µM) | 0
CC(c1ccc(-c2cnc3c(-c4ccc(S(N)(=O)=O)c5ccccc45)cnn3c2)cc1)N1CCCC1 (stereo unspecified) (2.5 µM) | 0
CCn1c(=O)c(-c2ccc(-c3cncc(C)n3)cc2Cl)cc2cnc(NCCC3CCN(C)CC3)nc21 (10 µM) | 0
O=C(O)c1cc(O)ccc1O [2,5-Dihydroxybenzoic acid] (10 µM) | 0
CC(=NNC(=O)c1ccc(C)c(Br)c1)c1ccc(O)cc1O [mTOR inhibitor-1] (2.5 µM) | 0
Nc1ncnc2c1ncn2[C@@H]1O[C@H](CO)C[C@H]1O [Cordycepin] (10 µM) | 0
C=CC(=O)Nc1cc2c(Nc3ccc(OCc4ccccn4)c(Cl)c3)ncnc2cc1OCCN1CCOCC1 (10 µM) | 0
Cc1ccc(S(=O)(=O)Nc2ccccc2C=Nc2ccccc2NS(=O)(=O)c2ccc(C)cc2)cc1 (10 µM) | 0
CCOc1cc(C(=O)N2CCC(N3CCN(C)CC3)CC2)ccc1Nc1ncc2c(n1)N(C1CCCC1)c1ccccc1C(=O)N2C (10 µM) | 0
Cn1cnc(-c2cc3nccc(Oc4ccc(NC(=S)NC(=O)Cc5ccccc5)cc4F)c3s2)c1 [MGCD-265 analog] (10 µM) | 2
Cn1c(=O)c(F)c(Nc2ccc(I)cc2F)c2c(=O)n(C[C@@H](O)CO)cnc21 (10 µM) | 0
Nc1ncnc2c1c(-c1ccc(Oc3ccccc3)cc1)nn2C1CCNCC1 [N-piperidine Ibrutinib (hydrochloride)] (10 µM) | 0
Cc1csc(-c2nnc(Nc3ccc(Oc4ncccc4-c4ccnc(N)n4)cc3)c3ccccc23)c1 (2.5 µM) | 0
O=C(O)CCc1ccc(O)c(O)c1 [Dihydrocaffeic acid] (10 µM) | 0

Structure (SMILES) | number of time points
COCCOc1cnc(Sc2cc(C)c(-c3csc(NC(=O)c4ccncc4)n3)c(C)c2)cn1 [T-1101 (tosylate)] (2.5 µM) | 0
Cc1cc(NC(=O)c2cccc(NC(=O)/C=C/CN(C)C)c2)ccc1Nc1nccc(-c2cccnc2)n1 (10 µM) | 0
Cc1c(NC(=O)OC[C@@H]2COCCN2)cn2ncnc(Nc3ccc4c(cnn4Cc4cccc(F)c4)c3)c12 (10 µM) | 0
Cc1ccc(-c2c(C(=O)CF)n(CCCO)c3ncnc(N)c23)cc1 (10 µM) | 0
Cc1ccc(-c2c(C(=O)CCl)n(CCCO)c3ncnc(N)c23)cc1 (10 µM) | 0
COc1cc(F)c(F)c(Nc2ccc(I)cc2F)c1NS(=O)(=O)C1(C[C@H](O)CO)CC1 [Refametinib] (10 µM) | 0
CCN(CC)c1ccc2cc(C(=O)N3CCN(C(=O)C4=Cc5c(Br)cccc5S4(=O)=O)CC3)c(=O)oc2c1 (2 µM) | 0
COc1ccc(C(=C2C(=O)Nc3ccccc32)c2ccc(OC)cc2)cc1 (10 µM) | 0
N#Cc1ccc2ncnc(NC3CCC(N4CCOCC4)CC3)c2c1 (stereo unspecified) (10 µM) | 0
NCCN1CCN(C/C=C/C(=O)N2CCC[C@@H](n3nc(-c4ccc(Oc5ccccc5)cc4)c4c(N)ncnc43)C2)CC1 [Ibrutinib-MPEA] (10 µM) | 0
CN(CC(=O)N(Cc1ccc(C2CCCCC2)cc1)c1ccc(C(=O)O)cc1)S(=O)(=O)c1c(F)c(F)c(F)c(F)c1F (2.5 µM) | 0
CCn1c(C(=O)N(C2CC2)C2CC2)cc2c3c(ncn3C)c(Nc3cc(C)n(C)n3)nc21 (10 µM) | 0
CC(C)CN(CC(=O)N1CCN(CC(OCc2ccc3ccccc3c2)c2ccc(Cl)cc2Cl)CC1)CC(C)C (stereo unspecified) [LYN-1604 (dihydrochloride)] (2.5 µM) | 0
COc1ccc2[nH]cc(/C=C3\C(=O)Nc4ccc(NC(=O)CCN5CCCCC5)cc43)c2c1 (2.5 µM) | 0
CC(C)=CC(=O)CCC(=O)N1CCN(Cc2cc3nc(-c4cccc5[nH]ncc45)nc(N4CCOCC4)c3s2)CC1 (10 µM) | 0

Sorted by heavy-atom count (ascending): 3 of the compounds above.
Structure (SMILES) | number of time points
Cc1ccc(-c2c(C(=O)CCl)n(CCCO)c3ncnc(N)c23)cc1 (10 µM) | 0
Cc1cc(NC(=O)c2cccc(NC(=O)/C=C/CN(C)C)c2)ccc1Nc1nccc(-c2cccnc2)n1 (10 µM) | 0
CC(C)=CC(=O)CCC(=O)N1CCN(Cc2cc3nc(-c4cccc5[nH]ncc45)nc(N4CCOCC4)c3s2)CC1 (10 µM) | 0
